Experimental data as given in PubChem BioAssay AID493014 (National Center for Advancing Translational Sciences (NCATS), 2011).
This is one part of the list. The main result of the screen is listed elsewhere. These columns were measured beside it and carry no call. Most of these compounds were active or inconclusive in the main read-out, so they are no random draw. The note in brackets gives the kind of curve behind each potency; many fits are weak.

Test: qHTS Assay to Find Inhibitors of Chronic Active B-Cell Receptor Signaling
Conditions: ABC-DLBCL IkBa-CBG/CBR reporter, luminescence ratio (green luciferase fused to IkBa over red control in TMD8 lymphoma cells), 4 h
Outline: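 TMD8 ABC-DLBCL cells carrying doxycycline-inducible green luciferase fused to IkappaBalpha plus unfused red luciferase were exposed to compounds (up to 46 uM) for 4 hrs at 37C. Activity came from the overlap-corrected green/red luminescence ratio.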

[1] = measured here: CBR red luminescence, cell number
[2] = measured here: IkBa-CBG green luminescence

Question: With `CN1CCN(c2nc3c(c(=O)n(C)c(=O)n3C)n2Cc2ccccc2)CC1` as the compound, how does the AC50 [1] read?
Answer: Its AC50 is 0.0891 µM [rising, full curve, poor fit].

Question: For `Nc1nc(N)nc(-c2ccccc2O)n1`, which AC50 [1] is on record?
Answer: The AC50 was 1.78 µM [falling, partial curve, poor fit].

Question: Which AC50 [1] does the source give for `O=[N+]([O-])c1cc(-c2n(-c3ccccn3)c3ccccc3[n+]2-c2ccccn2)ccc1Cl` here?
Answer: The AC50 was 35.5 µM [falling, partial curve, poor fit].

Question: Which AC50 [1] does the source give for `COc1ccc(C2=Nn3c(nnc3-c3cccnc3)SC2)cc1` here?
Answer: Its AC50 is 6.51 µM [falling, partial curve, poor fit].

Question: For `COc1ccccc1/C=C/C(=O)Nc1ccc2c(c1)CCC2`, which AC50 [1] is on record?
Answer: Its AC50 is 23.1 µM [falling, partial curve, poor fit].

Question: For `CCn1c(C)nc2cc(C(=O)NNC(=S)Nc3ccccc3Cl)ccc21`, which AC50 [1] is on record?
Answer: The AC50 was 32.6 µM [falling, single point].

Question: With `COc1ccc(C2=CC(c3ccc(Cl)cc3)n3cnnc3N2)cc1OC` (stereo unspecified) as the compound, how does the AC50 [1] read?
Answer: The AC50 was 25.1 µM [falling, single point].

Question: With `Cc1cccc(OCCC(=O)NNC(=O)Cn2nc(C)cc2C)c1` as the compound, how does the AC50 [1] read?
Answer: The AC50 was 23.1 µM [rising, partial curve, poor fit].

Question: With `O=C1c2ccccc2S(=O)(=O)N1CCOc1ccc(F)cc1` as the compound, how does the AC50 [1] read?
Answer: Its AC50 is 35.5 µM [rising, partial curve, poor fit].

Question: With `Cc1ccc(C)c(C(=O)COC(=O)CCCC(=O)Nc2cc(C(F)(F)F)ccc2Cl)c1` as the compound, how does the AC50 [1] read?
Answer: The AC50 was 3.26 µM [rising, single point].

Question: For `N#Cc1c(Cl)nc(N/N=C/c2ccccc2)c(Cl)c1Cl`, which AC50 [1] is on record?
Answer: Its AC50 is 23.1 µM [falling, single point].

Question: With `c1cc(SSc2ccncc2)ccn1` as the compound, how does the AC50 [1] read?
Answer: Its AC50 is 22.4 µM [rising, single point].

Question: Which AC50 [1] does the source give for `CN(C)c1ccc(/C=N/n2c(COc3ccccc3)n[nH]c2=S)cc1` here?
Answer: Its AC50 is 25.9 µM [rising, single point].

Question: For `Cc1ccc(N2C(=O)CC(Sc3ccccc3C(=O)O)C2=O)cc1C` (stereo unspecified), which AC50 [1] is on record?
Answer: Its AC50 is 8.91 µM [falling, partial curve].

Question: With `COc1ccc(/C(N)=N/OC(=O)CCCc2ccccc2)cc1` as the compound, how does the AC50 [1] read?
Answer: The AC50 was 4.61 µM [rising, full curve, poor fit].

Question: For `Cc1ccc(-c2ccc(CCC(=O)O)n2CC(=O)O)cc1`, which AC50 [1] is on record?
Answer: The AC50 was 35.5 µM [falling, single point].

Question: For `O=C(Nc1ccncc1)c1ccc2c(c1)S(=O)(=O)c1ccccc1C2=O`, which AC50 [1] is on record?
Answer: The AC50 was 0.794 µM [rising, full curve, poor fit].

Question: With `CCn1c(C)cc(/C=C2/SC(=S)NC2=O)c1C` as the compound, how does the AC50 [1] read?
Answer: Its AC50 is 0.651 µM [rising, full curve, poor fit].

Question: With `Nc1ccc(C2(c3ccc(N)cc3)C(=O)Nc3ccccc32)cc1` as the compound, how does the AC50 [1] read?
Answer: The AC50 was 20 µM [falling, partial curve, poor fit].

Question: What about the AC50 [2] of the same compound?
Answer: Its AC50 is 35.5 µM [rising, partial curve, poor fit].

Question: For `CN(CC(=O)Nc1ccc(OC(F)(F)F)cc1)C(=O)/C=C/c1cc2c(cc1[N+](=O)[O-])OCO2`, which AC50 [1] is on record?
Answer: The AC50 was 6.51 µM [rising, single point].

Question: Which AC50 [1] does the source give for `COc1ccc(CN2CCSc3sccc3C2=O)cc1` here?
Answer: The AC50 was 12.6 µM [rising, single point].

Question: With `O=C(Cc1csc(NC(=O)Nc2ccc(Cl)cc2)n1)NC1CCCC1` as the compound, how does the AC50 [1] read?
Answer: Its AC50 is 1.16 µM [rising, full curve].

Question: For `CC1(C)CC(=O)c2cnc(NC(=O)CSc3nc4ccccc4o3)nc2C1`, which AC50 [1] is on record?
Answer: The AC50 was 2.59 µM [falling, full curve].

Question: For `COc1ccc(C2=NOC(C(=O)N3CCN(c4ccccc4OC)CC3)C2)cc1` (stereo unspecified), which AC50 [1] is on record?
Answer: Its AC50 is 3.26 µM [rising, partial curve, poor fit].

Question: For `Cc1cc(=O)n2nc(N3CCCC(C(=O)N4CCc5ccccc54)C3)sc2n1` (stereo unspecified), which AC50 [1] is on record?
Answer: Its AC50 is 32.6 µM [rising, single point].

Question: With `COc1ccc(NC(=O)c2cccc(OC(=S)N3CCOCC3)c2)cc1` as the compound, how does the AC50 [1] read?
Answer: The AC50 was 12.6 µM [falling, single point].

Question: Which AC50 [1] does the source give for `O=C(NCCC1=CCCCC1)c1ccc2c(c1)N(Cc1cccc(Cl)c1)C(=O)c1ccccc1S2(=O)=O` here?
Answer: The AC50 was 4.47 µM [rising, full curve, poor fit].

Question: Which AC50 [1] does the source give for `COCCC(=O)N1CCc2c([nH]c3ccccc23)C1C(C)(C)C` (stereo unspecified) here?
Answer: Its AC50 is 5.62 µM [rising, single point].

Question: With `CC(=O)Oc1ccc2occ(C(=O)c3cccs3)c2c1` as the compound, how does the AC50 [1] read?
Answer: The AC50 was 14.1 µM [falling, single point].

Question: Which AC50 [1] does the source give for `CCCCN(CC)Cc1ccc(CNC(=S)Nc2cccc(F)c2)o1` here?
Answer: Its AC50 is 12.6 µM [falling, single point].

Question: With `CC(C)NS(=O)(=O)c1ccc(CCC(=O)N2CCC(C(N)=O)CC2)cc1` as the compound, how does the AC50 [1] read?
Answer: The AC50 was 10 µM [falling, partial curve].

Question: For `C/C(CC(=O)Nc1ccc(F)cc1)=N\NC(=O)c1ccccn1`, which AC50 [1] is on record?
Answer: The AC50 was 7.08 µM [falling, partial curve].

Question: For `CCc1ccc(N(CC(=O)NC2CCCCC2)S(=O)(=O)c2c(C)noc2C)cc1`, which AC50 [1] is on record?
Answer: Its AC50 is 1.78 µM [falling, partial curve, poor fit].

Question: Which AC50 [1] does the source give for `COc1ccc(S(=O)(=O)N(CC(=O)Nc2cccc(C)c2)c2ccc(C)cc2)cc1OC` here?
Answer: Its AC50 is 10 µM [falling, partial curve, poor fit].

Question: Which AC50 [1] does the source give for `CN(C)c1ccc(C(=O)NC2CCCc3ccccc32)cc1` (stereo unspecified) here?
Answer: The AC50 was 3.98 µM [falling, partial curve, poor fit].

Question: For `COc1cc(NC(=O)C(C)C)ccc1NC(=O)c1cc2ccccc2o1`, which AC50 [1] is on record?
Answer: The AC50 was 0.891 µM [rising, full curve, poor fit].

Question: For `O=c1c2c([nH]c3ccccc13)CCCCC2`, which AC50 [1] is on record?
Answer: Its AC50 is 6.31 µM [rising, single point].

Question: Which AC50 [1] does the source give for `Cc1cc(/C=N\NC(=O)CC(=O)NC2CCCCC2)c(C)n1-c1cccc(Cl)c1Cl` here?
Answer: The AC50 was 23.1 µM [falling, single point].

Question: For `O=C(NNc1nc2c(F)cc(F)cc2s1)c1ccccc1`, which AC50 [1] is on record?
Answer: Its AC50 is 10 µM [falling, single point].

Question: Which AC50 [1] does the source give for `Cc1cccc(NC(=O)c2ccc(-n3ccnc3)nc2)c1` here?
Answer: Its AC50 is 16.4 µM [falling, partial curve, poor fit].

Question: Which AC50 [1] does the source give for `CCOC(=O)c1cccc(NC(=O)c2cncc(Br)c2)c1` here?
Answer: The AC50 was 6.51 µM [rising, partial curve, poor fit].

Question: For `Oc1c(N=NC(=S)Nc2ccccc2F)c2ccccc2n1Cc1ccccc1`, which AC50 [1] is on record?
Answer: The AC50 was 15.8 µM [falling, single point].

Question: With `CC(=O)c1ccc(NC(=O)c2cc(CC(C)C)nc3ccccc23)cc1` as the compound, how does the AC50 [1] read?
Answer: The AC50 was 35.5 µM [falling, single point].

Question: Which AC50 [1] does the source give for `C=CC[C@H](CC(=O)N[C@H](CO)Cc1ccccc1)C(=O)N[C@@H](COC(=O)[C@@H](CC=C)Cc1ccc(F)cc1)Cc1c[nH]c2ccccc12` here?
Answer: Its AC50 is 29.1 µM [falling, single point].

Question: With `O=C(OCc1ccc([N+](=O)[O-])cc1)c1cnc(Cl)c(Cl)c1` as the compound, how does the AC50 [1] read?
Answer: Its AC50 is 35.5 µM [rising, single point].

Question: And the AC50 [2]?
Answer: Its AC50 is 35.5 µM [falling, single point].

Question: For `CN1CCN(c2cc(N3CCc4ccccc4C3)c(F)cc2[N+](=O)[O-])CC1`, which AC50 [1] is on record?
Answer: The AC50 was 29.1 µM [falling, single point].

Question: For `Cc1ccc2c(c1)c1c(n2CC(O)CN2C(=O)CNC2=O)C(=O)CCC1` (stereo unspecified), which AC50 [1] is on record?
Answer: Its AC50 is 5.17 µM [falling, full curve, poor fit].

Question: With `Cc1ccccc1-c1nnc(SCc2ccccc2F)o1` as the compound, how does the AC50 [1] read?
Answer: The AC50 was 22.4 µM [rising, partial curve, poor fit].

Question: Which AC50 [1] does the source give for `O=C(NCCCN1CCc2ccccc2C1)Nc1ccc(Cl)cc1` here?
Answer: The AC50 was 3.55 µM [rising, single point].

Question: With `Cc1cnc(C(=O)Nc2ccc(S(=O)(=O)NCC(C)C)cc2)cn1` as the compound, how does the AC50 [1] read?
Answer: The AC50 was 3.55 µM [falling, full curve, poor fit].

Question: With `CCCCCn1c(N2CCN(Cc3ccccc3)CC2)nc2c1c(=O)[nH]c(=O)n2C` as the compound, how does the AC50 [1] read?
Answer: Its AC50 is 10.3 µM [rising, partial curve, poor fit].

Question: For `COc1ccc(C(=O)NCc2csc(C(C)C)n2)cc1OC1CCN(C(C)=O)CC1`, which AC50 [1] is on record?
Answer: The AC50 was 15.8 µM [falling, single point].

Question: For `COc1ccccc1Nc1nnc(SCC(=O)NC2CC2)s1`, which AC50 [1] is on record?
Answer: Its AC50 is 2.06 µM [falling, partial curve].

Question: For `COCc1cc(=O)n2[nH]c(C(F)(F)F)nc2n1`, which AC50 [1] is on record?
Answer: The AC50 was 20.6 µM [rising, single point].

Question: With `CCN(CC)CCNCC(O)(c1ccc(Cl)cc1)c1ccc(Cl)cc1` as the compound, how does the AC50 [1] read?
Answer: The AC50 was 12.6 µM [falling, single point].

Question: Which AC50 [1] does the source give for `C/C(=N\NC(=O)c1ccc2c(c1)OCCO2)c1ccccc1` here?
Answer: The AC50 was 2 µM [falling, full curve].

Question: For `COc1ccc(NC(=O)COc2cccc3c2CCN(Cc2cccnc2)C3=O)cc1`, which AC50 [1] is on record?
Answer: Its AC50 is 6.31 µM [falling, partial curve, poor fit].

Question: For `COC(=O)c1sc(NC(=O)c2c(OC)cccc2OC)c(C#N)c1C`, which AC50 [1] is on record?
Answer: Its AC50 is 0.316 µM [rising, full curve, poor fit].

Question: Which AC50 [1] does the source give for `Cc1ccccc1NS(=O)(=O)c1cccc2nsnc12` here?
Answer: The AC50 was 6.31 µM [rising, single point].

Question: With `CC(C)Cc1cc(C(=O)Nc2ccccc2)c2ccccc2n1` as the compound, how does the AC50 [1] read?
Answer: Its AC50 is 14.1 µM [falling, partial curve, poor fit].

Question: For `O=C(NNc1c2ccccc2nc2ccccc12)c1ccc(O)cc1`, which AC50 [1] is on record?
Answer: The AC50 was 20.6 µM [falling, partial curve, poor fit].

Question: For `COc1ccccc1OCc1ccc(C(=O)N2N=C(C(F)F)CC2(O)C(F)F)o1` (stereo unspecified), which AC50 [1] is on record?
Answer: Its AC50 is 2.91 µM [falling, partial curve, poor fit].

Question: Which AC50 [1] does the source give for `O=C(Cc1ccccc1)Nc1ccccc1C(=O)O` here?
Answer: Its AC50 is 20.6 µM [falling, single point].

Question: Which AC50 [1] does the source give for `Cc1ccccc1N1C(S)=C(C#N)C(=O)NC12CCCCC2` here?
Answer: The AC50 was 18.4 µM [rising, single point].
